Results are given in words; binding and its absence hold for the method and conditions named. Binding seen in cells or lysates may run through a third protein. These calls come from enrichment with a bait or labelling near it, and not all partners need be listed. Where a sequence is shown, tags or fusion partners need not be part of it.

By UniProt entry, the sequences of proteins in these tests, tags left out.
UniProt P20338: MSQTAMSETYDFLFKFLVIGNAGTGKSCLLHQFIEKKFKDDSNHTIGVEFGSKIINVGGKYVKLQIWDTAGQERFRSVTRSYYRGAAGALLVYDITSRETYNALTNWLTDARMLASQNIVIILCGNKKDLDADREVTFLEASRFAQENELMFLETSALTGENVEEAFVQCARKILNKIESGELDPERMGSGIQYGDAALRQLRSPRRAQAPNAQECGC
UniProt P61026: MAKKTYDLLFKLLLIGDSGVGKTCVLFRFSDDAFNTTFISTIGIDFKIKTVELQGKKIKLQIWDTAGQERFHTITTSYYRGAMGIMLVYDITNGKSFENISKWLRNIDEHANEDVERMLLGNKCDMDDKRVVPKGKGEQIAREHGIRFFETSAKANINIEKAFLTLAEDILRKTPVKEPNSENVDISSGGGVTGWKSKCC

Two substances from paper PMC6555802 can be followed below.

This assay has as its target T1, 3xFlag-CHML (human) (UniProt P26374).
T1 sequence: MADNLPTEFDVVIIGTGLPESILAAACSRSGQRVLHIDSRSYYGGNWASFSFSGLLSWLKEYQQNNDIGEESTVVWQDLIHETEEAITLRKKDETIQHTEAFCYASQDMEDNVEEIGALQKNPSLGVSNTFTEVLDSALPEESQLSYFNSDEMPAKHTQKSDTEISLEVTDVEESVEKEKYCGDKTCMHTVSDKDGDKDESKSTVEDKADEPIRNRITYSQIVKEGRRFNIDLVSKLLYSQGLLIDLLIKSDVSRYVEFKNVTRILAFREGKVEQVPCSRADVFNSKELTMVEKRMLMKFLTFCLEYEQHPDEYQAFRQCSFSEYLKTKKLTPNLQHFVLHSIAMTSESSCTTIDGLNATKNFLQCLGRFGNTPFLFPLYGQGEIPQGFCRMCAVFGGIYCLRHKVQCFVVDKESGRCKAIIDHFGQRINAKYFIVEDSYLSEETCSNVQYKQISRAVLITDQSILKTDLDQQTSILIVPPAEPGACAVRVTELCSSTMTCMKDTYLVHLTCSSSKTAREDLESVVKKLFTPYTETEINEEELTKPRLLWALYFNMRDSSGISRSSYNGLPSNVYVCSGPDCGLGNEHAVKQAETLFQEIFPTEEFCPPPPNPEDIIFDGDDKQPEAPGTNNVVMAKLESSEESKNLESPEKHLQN
Put plainly: affinity purification with mass spectrometry; 3xFlag-CHML overexpressed in 293T cells, immunoprecipitated with anti-Flag beads; silver-stained band just beneath 25KD analysed by tandem mass spectrum.

On to Rab4A (from UniProt P20338 1-218), for which the binding entry is given as “binds”.
The entry for Rab10 (from UniProt P61026 1-200) is “binds”.
